From article PMC7817014
No constants are given. Whether binding was seen depends on the method and setting. Binding seen in cells or lysates may run through a third protein. Where a sequence is shown, tags or fusion partners need not be part of it.

Biological target: MYC epitope-tagged CCDC114 (mouse)
Assay: co-IP; HEK293T cells co-transfected for 24 h, lysed in RIPA buffer; immunoprecipitation with mouse monoclonal antibodies to HA, MYC or GFP and protein A-agarose beads; immunoblot with rabbit polyclonal antibodies to HA, MYC or GFP

binding: no binding
B1: HA-tagged CFAP53 (protein, UniProt Q9D439 1-514)
chain: MYSQQFGTVPREFKGPTPKAVIIRAKPPKAQRAEQHLKRIQRSYHKYHTTLASIKSNEENRLKCDWIQRNNHKTFDSLVQARVQDAMQGFVINTEERRNKLRELLASEENEYFSEMQLKGETIEEKKDKMRERTKLLREKKEKERQEFVAEKLDQQFRERCEELRTKLASIHEKKVVEERNAQIEFNKELKRQKLVEEHLFARLWEEDRLAKERREAQEEKRQRELVQNTRLGLDAQVTSIQAQRQGARRMKEEEARILEQNKAQIKREDEQEKLQKQKRRQETRSSLKKAVQDKIESMQREYREDLDLNMKLVGRALQDLQDEADKKKQKREEMGREQKIYNDYLMQRREEEKAQEKELNRLLEDIKAKKLAEKDRELALQRAARKQLMNEVMNTRKLQVQERLQRKLREQEELALHEQRISESLKVLHQEDMEDFARRCALAEEYRNQLQMQIAHQQQAREAEKEEERQEFEAGLAANKACLDKIQRILSENQALSQNVHPMRRGYPDKPPL
